The list is a part of this screen's results and no random one: it is rich in T/C values a quarter to a half above the control, in often repeated tests (any T/C) and in doses without a T/C. Other doses and runs of a compound stand elsewhere. T/C: endpoint of the treated group in % of that of the vehicle group. Some entries give survivors of the animals treated and no T/C: the source files T/C as zero there, which appears to mark a toxic dose or a test without result, not a measured value. Some survivor counts are full or nearly so, which does not show that the dose was tolerated: the source hardly ever lists a survival T/C far under the control, and the zero likely stands for such cases as well. Survivors were counted at the toxicity check, usually on the fifth day, unless a day is given; later deaths do not show. Schedules are NCI's codes, read here as Q, the interval in days (D) or hours (H), X, the number of doses. For survival time, this PubChem deposit counts one and a half times the control or more as active, and values a quarter to a half above the control carry no call in these data; other NCI protocols may use other cut-offs. Additions like (4×) count equal records among those shown. Some doses were run more than once; the values are given in rising order.
Test system: L1210 leukemia ip in BDF1 mice, survival T/C
Assay: NCI In Vivo Anticancer Drug Screen. Data for tumor model L1210 Leukemia (intraperitoneal) in B6D2F1 (BDF1) mice
Settings: T/C endpoint: median survival time, vehicle: saline, higher T/C = longer survival

Q: For `O=P1(N(CCCl)CCCl)NCCCO1` (centres undefined), which T/C (dose: 65.0 mg/kg/injection, schedule: Q07DX003 (ip), evaluated on day 32) is on record?
A: 130 and 133 % of control

Q: What about the T/C (dose: 65.0 mg/kg/injection, schedule: Q07DX003 (ip), evaluated on day 46) of the same compound?
A: 136 % of control

Q: What about the T/C (dose: 65.0 mg/kg/injection, schedule: Q07DX004 (ip), evaluated on day 7) of the same compound?
A: 162 and 166 % of control

Q: And the T/C (dose: 65.0 mg/kg/injection, schedule: Q07DX004 (ip), evaluated on day 60)?
A: 166 % of control (2×)

Q: What about the T/C (dose: 70.0 mg/kg/injection, schedule: Q01DX001 (ip), evaluated on day 5) of the same compound?
A: 134 % of control

Q: What about the T/C (dose: 70.0 mg/kg/injection, schedule: Q01DX001 (ip), evaluated on day 7) of the same compound?
A: 138 % of control

Q: What about the T/C (dose: 70.0 mg/kg/injection, schedule: Q01DX001 (sc)) of the same compound?
A: 146 % of control

Q: And the T/C (dose: 75.0 mg/kg/injection, schedule: Q01DX001 (ip))?
A: 147 % of control

Q: What about the T/C (dose: 75.0 mg/kg/injection, schedule: Q07DX003 (ip), evaluated on day 7) of the same compound?
A: 145, 150, 160 % of control

Q: What about the T/C (dose: 75.0 mg/kg/injection, schedule: Q07DX003 (ip), evaluated on day 34) of the same compound?
A: 145 % of control

Q: And the T/C (dose: 75.0 mg/kg/injection, schedule: Q07DX003 (ip), evaluated on day 63)?
A: 150 and 152 % of control

Q: What about the T/C (dose: 80.0 mg/kg/injection, schedule: Q01DX001 (ip), evaluated on day 8) of the same compound?
A: 142 % of control

Q: And the T/C (dose: 80.0 mg/kg/injection, schedule: Q01DX001 (ip), evaluated on day 30)?
A: 142 % of control

Q: What about the survivor count (dose: 80.0 mg/kg/injection, schedule: Q01DX005 (ip)) of the same compound?
A: 5 of 6

Q: What about the T/C (dose: 80.0 mg/kg/injection, schedule: Q01DX009 (ip), evaluated on day 25) of the same compound?
A: 115 % of control

Q: And the T/C (dose: 80.0 mg/kg/injection, schedule: Q01DX009 (ip), evaluated on day 30)?
A: 100, 132, 146 % of control

Q: And the T/C (dose: 100.0 mg/kg/injection, schedule: Q01DX001 (ip), evaluated on day 7)?
A: 126, 132, 140, 145, 148 (2×), 162 (2×), 164, 165, 186 % of control

Q: And the T/C (dose: 100.0 mg/kg/injection, schedule: Q01DX001 (ip), evaluated on day 26)?
A: 126 % of control

Q: What about the T/C (dose: 100.0 mg/kg/injection, schedule: Q01DX001 (ip), evaluated on day 30) of the same compound?
A: 138, 146, 155 % of control

Q: And the T/C (dose: 100.0 mg/kg/injection, schedule: Q01DX001 (ip), evaluated on day 35)?
A: 164 % of control

Q: And the T/C (dose: 100.0 mg/kg/injection, schedule: Q01DX001 (ip), evaluated on day 43)?
A: 130 % of control

Q: And the T/C (dose: 100.0 mg/kg/injection, schedule: Q01DX001 (ip), evaluated on day 44)?
A: 160 % of control

Q: What about the T/C (dose: 100.0 mg/kg/injection, schedule: Q01DX001 (ip), evaluated on day 45) of the same compound?
A: 140 % of control

Q: And the T/C (dose: 100.0 mg/kg/injection, schedule: Q01DX001 (ip), evaluated on day 62)?
A: 186 % of control

Q: What about the T/C (dose: 100.0 mg/kg/injection, schedule: Q01DX001 (ip), evaluated on day 63) of the same compound?
A: 140 and 165 % of control

Q: And the T/C (dose: 100.0 mg/kg/injection, schedule: Q01DX001 (ip), evaluated on day 64)?
A: 159 % of control

Q: And the T/C (dose: 100.0 mg/kg/injection, schedule: Q08DX002 (ip), evaluated on day 7)?
A: 143, 160, 221 % of control

Q: And the T/C (dose: 100.0 mg/kg/injection, schedule: Q08DX002 (ip), evaluated on day 43)?
A: 150 % of control

Q: And the T/C (dose: 100.0 mg/kg/injection, schedule: Q08DX002 (ip), evaluated on day 44)?
A: 205 % of control

Q: What about the T/C (dose: 100.0 mg/kg/injection, schedule: Q08DX002 (ip), evaluated on day 46) of the same compound?
A: 144 % of control

Q: And the T/C (dose: 100.0 mg/kg/injection, schedule: Q08DX003 (ip), evaluated on day 7)?
A: 144 % of control

Q: What about the T/C (dose: 100.0 mg/kg/injection, schedule: Q08DX003 (ip), evaluated on day 45) of the same compound?
A: 140 % of control

Q: What about the T/C (dose: 108.0 mg/kg/injection, schedule: Q01DX001 (ip), evaluated on day 5) of the same compound?
A: 137, 155, 197 % of control

Q: What about the T/C (dose: 108.0 mg/kg/injection, schedule: Q01DX001 (ip), evaluated on day 7) of the same compound?
A: 150, 156, 159, 187 % of control

Q: And the T/C (dose: 108.0 mg/kg/injection, schedule: Q01DX001 (ip), evaluated on day 36)?
A: 185 % of control

Q: And the T/C (dose: 108.0 mg/kg/injection, schedule: Q01DX001 (ip), evaluated on day 40)?
A: 131 % of control

Q: What about the T/C (dose: 108.0 mg/kg/injection, schedule: Q01DX001 (ip), evaluated on day 45) of the same compound?
A: 155 % of control

Q: And the T/C (dose: 108.0 mg/kg/injection, schedule: Q01DX001 (ip), evaluated on day 46)?
A: 152 % of control

Q: And the T/C (dose: 108.0 mg/kg/injection, schedule: Q01DX001 (ip), evaluated on day 60)?
A: 162 % of control

Q: What about the T/C (dose: 108.0 mg/kg/injection, schedule: Q01DX001 (ip), evaluated on day 62) of the same compound?
A: 155 % of control

Q: And the T/C (dose: 108.0 mg/kg/injection, schedule: Q01DX001 (ip), evaluated on day 69)?
A: 166 % of control

Q: And the T/C (dose: 108.0 mg/kg/injection, schedule: Q01DX001 (ip), evaluated on day 90)?
A: 161 % of control

Q: And the T/C (dose: 108.0 mg/kg/injection, schedule: Q07DX003 (ip), evaluated on day 7)?
A: 183, 184, 204 % of control

Q: What about the T/C (dose: 108.0 mg/kg/injection, schedule: Q07DX003 (ip), evaluated on day 32) of the same compound?
A: 183 and 184 % of control

— PubChem BioAssay AID248 (DTP/NCI, 2004)
